# Source: PubChem BioAssay AID1347076 (National Center for Advancing Translational Sciences (NCATS), 2019)
# About 13,000 (3.2%) of roughly 400,000 compounds were called active. The inconclusive results got no clear call from the source; some entries with a clear call stand among them for comparison. Calls follow the shape of the dose curve; as a rule, active = well fitted cell-killing curve with a large enough effect; inconclusive = small, poorly fitted or top-dose-only effect, or effect the other way; inactive = flat fitted curve, though single readings scatter. A potency beside an inconclusive call is a rough fit, not a confirmed value.
# Experiment: qHTS assay for MDR1-selective chemotherapeutics: Primary screen using the drug-selected MDR subline cells KB-V1; also: nearly all actives have a fitted effect of over 60% in size
# Conditions: KB-V1 MDR cells viability, CellTiter-Glo, 72 h; activity change, negative = cytotoxicity: at 46.1 µM (top of the series)
# Summary of the method: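 Compound-treated KB-V1 multidrug-resistant cells, 72 h, 37 degrees C; viability by CellTiter-Glo. Fitted qHTS curves give the values.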
# % is scaled to controls: 0 for no effect and ±100 for the full control effect; potency is read from the fitted curve at half-maximal effect.
SMILES,Potency,"activity change, negative = cytotoxicity"
NC(=O)c1c(Br)n(C2OC(CO)C(O)C2O)c2ncnc(N)c12 (centres undefined),active: 9.2 µM,–
CC(=O)O[C@H]1C[C@@H]2OC3C=C(C)CCC3(C)[C@@]1(C)[C@@]21CO1 (some centres undefined),active: 1.64 µM,–
CC(=O)O[C@H]1[C@H]2O[C@]23[C@@H]2CC[C@]4(O)C[C@@H](O)CC[C@]4(C)C2CC[C@]3(C)[C@H]1c1ccc(=O)oc1 (some centres undefined),inactive,–
COC(=O)C(O)(c1c[nH]c2ccccc12)C(F)(F)F (centres undefined),"inconclusive: 25.9 µM [rising, partial curve, poor fit]",–
Cc1oc(-c2ccc(Cl)cc2)nc1CN1C(=O)CN=C(c2ccccc2)c2cc(Cl)ccc21,inactive,–
Cc1cccc(-n2c(-c3cccs3)nc3ccccc3c2=O)c1,"inconclusive: 20.6 µM [cytotoxic, single point]",–
c1cncc(C2Nc3cccc4cccc(c34)N2)c1,"inconclusive: 20.6 µM [rising, partial curve, poor fit]",–
CN1CCN(C(=O)O[C@H]2c3nccnc3C(=O)N2c2ccc(Cl)cn2)CC1,inactive,–
CCCCCCn1c(O)c(C(C)=NC)c(=O)[nH]c1=O,"inconclusive: 18.4 µM [cytotoxic, single point]",–
C[C@@H]1CC[C@@]2(NC1)O[C@H]1C[C@H]3[C@@H]4CC=C5C[C@@H](O)CC[C@]5(C)[C@H]4CC[C@]3(C)[C@H]1[C@@H]2C,"inconclusive: 23.1 µM [rising, partial curve, poor fit]",–
CCC(=NCCCN(C)C)c1c(O)n(-c2ccc(OC)cc2)c(=O)[nH]c1=O,"inconclusive: 11.6 µM [rising, partial curve]",–
CCn1c(C)c(C(=O)Nc2ccc(OC)cc2)c2cc(OC)ccc21,inactive,–
Cc1nccc2c1[nH]c1ccc(Br)cc12,"inconclusive: 1.84 µM [cytotoxic, full curve]",–
O=c1[nH]c(=O)n(Cc2ccco2)c(O)c1/C=N/N1CCCCCC1,"inconclusive: 8.2 µM [cytotoxic, partial curve, poor fit]",–
CC1(C)C(=O)CC[C@@]2(C)C1=CCC1C2CC[C@]2(C)C(=O)CCC12 (some centres undefined),inactive,–
Cc1cc(Cl)ccc1OCCCC(=O)NCc1cccs1,active: 25.9 µM,–
CC(=O)OC1C2(CC3N4C(=O)C5(CO)SSC4(CC31O)C(=O)N5C)OC(C)C(C)(C)C2=O (centres undefined),active: 2.31 µM,–
CC(=O)c1cn(Cc2ccccc2C#N)c2ccccc12,active: 1.84 µM,–
CCC(=NCc1cc(OC)cc(OC)c1)c1c(O)n(C)c(=O)n(C)c1=O,active: 7.31 µM,–
COc1ccc(-c2nn3c(=O)cc(CN4CCN(C(=O)COc5ccc(F)cc5)CC4)nc3s2)cc1,inactive,–
COc1ccc(-n2c(/C=C/c3ccc(O)c(O)c3)nc3ccccc3c2=O)cc1,inactive,–
CC(=O)OC1C=CC2[C@H]3Cc4ccc(O)c5c4[C@@]2(CCN3C)C1O5 (some centres undefined),inactive,–
Cc1ccc(N2C(=O)NC(=O)/C(=C\c3ccc(N4CCOCC4)cc3)C2=O)cc1,"inconclusive: 9.2 µM [rising, partial curve]",–
O=C1CN=C(c2ccccc2)c2c(sc3c2CCCC3)N1,"inconclusive: 29.1 µM [cytotoxic, single point]",–
CC(=Nc1ccccc1N)c1c(O)n(C)c(=O)[nH]c1=O,"inconclusive: 3.66 µM [cytotoxic, partial curve, poor fit]",–

SMILES,Potency,"activity change, negative = cytotoxicity"
COc1ccc2c(c1O)-c1c(OC)c(OC)cc3c1[C@H](C2)N(C)CC3,inactive,–
CCCCn1c(O)c(C(=O)/C=C/c2c[nH]c3ccccc23)c(=O)[nH]c1=O,inactive,–
COC(=O)C1=C(c2cc3ccccc3s2)C[C@@H]2CC[C@H]1N2C(=O)NCc1ccc(C(F)(F)F)cc1,active: 18.4 µM,–
O=c1[nH]c2ccccc2n1C1CCN(C(CCc2ccccc2)c2nnnn2Cc2ccccc2)CC1 (centres undefined),active: 6.51 µM,–
CNCC(O)c1cc(OCc2ccccc2)c(OCc2ccccc2)cc1F (centres undefined),active: 18.4 µM,–
CC(C)(C)[C@]1(O)C[C@@H]2OC(=O)C[C@@]23C(=O)O[C@@H]2OC(=O)[C@@H](O)C213 (some centres undefined),inactive,–
COc1ccc(CN2Cc3cc(-c4ccccc4)ccc3-n3nncc3C2)cc1,inactive,–
C/C(=N\NC(=O)c1ccccc1O)c1c(O)n(Cc2ccccc2)c(=O)[nH]c1=O,inactive,–
CC1(C)CC(=O)C=C(NCCN2CCN(C(=O)Cc3ccc(Cl)cc3)CC2)C1,"inconclusive: 29.1 µM [rising, single point]",–
c1ccc(CNCCc2ccc3c(c2)OCO3)nc1,–,inconclusive: -33.4% [cytotoxic]
CCC(C)C1N=C(c2ccccc2)c2cc(Cl)ccc2N(CC(=O)NCc2ccco2)C1=O (centres undefined),inactive,–
CC1=CC(=Cc2sc3ccccc3[n+]2C)C=C(C)O1,"inconclusive: 20.6 µM [rising, partial curve, poor fit]",–
O=C(/C=C/c1c[nH]c2ccccc12)c1c(O)n(CCc2ccccc2)c(=O)[nH]c1=O,"inconclusive: 29.1 µM [cytotoxic, single point]",–
CCCn1nc2ccccc2c1P(=O)(N1CCOCC1)N1CCOCC1,"inconclusive: 29.1 µM [cytotoxic, single point]",–
N/C(=N\[N+](=O)[O-])N/N=C/c1ccc(O)cc1,"inconclusive: 11.6 µM [cytotoxic, partial curve]",–
Clc1ccccc1CN1CCN(c2ccccc2Cl)CC1,"inconclusive: 20.6 µM [cytotoxic, single point]",–
OC(c1ccccc1)(c1ccc(Cl)cc1)C1CN2CCC1CC2 (centres undefined),"inconclusive: 29.1 µM [cytotoxic, single point]",–
Clc1cccc(N2Cc3ccccc3-n3nncc3C2)c1,inactive,–
Cc1ccc(/C=C2/C(=O)NC(=O)N(CC3CCCO3)C2=O)s1 (centres undefined),inactive,–
Cc1ccc(C2=NCC(=O)Nc3ccc(Br)cc32)cc1,inactive,–
CCOC(=O)C1(CCc2ccccc2)CCN(Cc2ccc3c(c2)OCCO3)CC1,"inconclusive: 8.2 µM [cytotoxic, partial curve, poor fit]",–
O=c1c2ccccc2nc(CBr)n1-c1ccc(Cl)cc1,inactive,–
CC(C)c1ccc(NC(=O)N2C[C@H]3C[C@@H](C2)c2cccc(=O)n2C3)cc1,"inconclusive: 20.6 µM [cytotoxic, single point]",–
O=C1CN(O)C(c2ccccc2)=c2cc(Cl)ccc2=N1,inactive,–
COC(=O)C1=C(c2ccccc2OCc2ccccc2)C[C@@H]2CC[C@H]1N2C(=O)NCc1cccc(F)c1,inactive,–

# Single records (already shown). Values in the order: Potency | activity change, negative = cytotoxicity
# COC(=O)C1=C(c2ccccc2OCc2ccccc2)C[C@@H]2CC[C@H]1N2C(=O)NCc1cccc(F)c1 in the list: inactive | –
# COc1ccc(CN2Cc3cc(-c4ccccc4)ccc3-n3nncc3C2)cc1 in the list: inactive | –
# CC1=CC(=Cc2sc3ccccc3[n+]2C)C=C(C)O1 in the list: inconclusive: 20.6 µM [rising, partial curve, poor fit] | –
# COC(=O)C1=C(c2cc3ccccc3s2)C[C@@H]2CC[C@H]1N2C(=O)NCc1ccc(C(F)(F)F)cc1 in the list: active: 18.4 µM | –

# (listing goes on)

SMILES,Potency,"activity change, negative = cytotoxicity"
COc1cc2cc(C(=O)N3CC(COS(C)(=O)=O)c4ccc(O)cc43)[nH]c2c(OC)c1OC (centres undefined),active: 0.0092 µM,–
COC(=O)C1=C(c2ccccc2OCc2ccccc2)C[C@@H]2CC[C@H]1N2C(=O)NCc1ccc(F)cc1,active: 18.4 µM,–
C=CCN1C(=O)/C(=C/c2ccc(Br)s2)C(=O)NC1=S,inactive,–
Cc1sc2ncn(CC(=O)NCC(=O)N3CCC4(CC3)OCCO4)c(=O)c2c1C,"inconclusive: 6.51 µM [rising, partial curve]",–
COc1ccc(C)cc1NC(=O)c1c(C)nn(Cc2ccccc2)c1Cl,"inconclusive: 23.1 µM [cytotoxic, single point]",–
CN(C)S(=O)(=O)c1cc(NC(=O)C[N+]23CCN(CC2)CC3)ccc1Cl,"inconclusive: 25.9 µM [rising, partial curve, poor fit]",–
CN(C)CC1CCCCC1OC(=O)Cc1ccc(Cl)c([N+](=O)[O-])c1 (centres undefined),inactive,–
COc1cc(/C=C2\C[C@H]3[C@@H]4CC=C5C[C@@H](N6CCCC6)CC[C@]5(C)[C@H]4CC[C@]3(C)[C@H]2O)cc(OC)c1OC,active: 2.91 µM,–
Cc1sc2c(c1C)C(c1ccc(C(C)(C)C)cc1)=NCC(=O)N2CC(=O)Nc1nccs1,active: 20.6 µM,–
COC(=O)C1=C(c2cccc(OCc3ccccc3)c2)C[C@@H]2CC[C@H]1N2C(=O)NCCN1CCOCC1,"inconclusive: 29.1 µM [cytotoxic, single point]",–
Cn1cc[n+](C)c1P(=S)(c1ccccc1)c1ccccc1,inactive,–
CCC(=O)N1CC(=O)Nc2ccc(C)cc2C1c1ccc(F)cc1 (centres undefined),inactive,–
COc1ccc(S(=O)(=O)N2Cc3cnnn3-c3ccccc3C2C#N)cc1 (centres undefined),inactive,–
Cc1nc2nc(SCC(=O)N3CCC4(CC3)OCCO4)nn2c(C)c1Cc1ccccc1,active: 25.9 µM,–
Cc1cc(/C=C2\C(=O)NC(=O)N(c3ccc(Cl)cc3)C2=O)c(C)n1-c1cccc(C(=O)O)c1,inactive,–
CC1(C)OC(c2ccccc2)=C/C(=C/C=C2C(=O)NC(=O)NC2=O)O1,inactive,–
O=Cc1cn(Cc2c(F)cccc2Cl)c2ccccc12,active: 16.4 µM,–
CN(C)CC(C(=O)Cc1ccccc1)c1ccccc1 (centres undefined),"inconclusive: 3.66 µM [cytotoxic, partial curve, poor fit]",–
S=C(NCCc1ccccc1)N1Cc2cc(N3CCCCC3)ccc2-n2nncc2C1,"inconclusive: 29.1 µM [cytotoxic, single point]",–
Cc1ccccc1Cn1cccc(C(=O)Nc2cc(Cl)ccc2C#N)c1=O,"inconclusive: 23.1 µM [cytotoxic, partial curve]",–
Cc1ccc(N=C(/N=C(\N)N[N+](=O)[O-])Nc2ccc(C)cc2)cc1,"inconclusive: 20.6 µM [cytotoxic, partial curve, poor fit]",–
O=C1c2ccccc2-n2nnc(-c3ccccc3)c2C2c3cc(Br)ccc3CCN12 (centres undefined),inactive,–
COc1cc(CN2CCNCC2)cc(OC)c1OC,"inconclusive: 20.6 µM [rising, partial curve]",–
C=C(C=O)C[C@@H]1C[C@H](O)C2OC3C[C@]4(C)OC5/C=C\CC6OC7C(CC=CCC6OC5CCCC4OC3CC2O1)OC1CC2OC3CC(=O)OC3C[C@@H](C)C[C@@]2(C)OC1C[C@@H]7C (some centres undefined),active: 8.2 µM,–
